Reference: PubChem BioAssay AID1259424 (University of Nebraska Medical Center, 2018)
In all, the deposit lists about 14,000 reagents; this is a part drawn at random. 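Higher correlation or smaller distance means closer resemblance to KSR1 loss; control wells, including KSR1 knockdowns, recur on many plates.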 Not all columns of the deposit are shown. Not stated in the record: the time to read-out.

- Test: 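Find knockdowns that reproduce the expression shifts seen after KSR1 loss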 (primary screen)
- Cells: human HCT116 colon cancer cells
- Reagents: siRNA pool against human genes, 50 nM
- Measurement: 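Log2 levels of six mRNAs (branched-DNA multiplex), adjusted by two reference genes and the non-targeting median, then scored against the average KSR1 knockdown pattern as Pearson r and euclidean distance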
- Reading the numbers: mean correlation with KSR1 profile: higher = expression change more like KSR1 knockdown

Silencing of ENOSF1 (enolase superfamily member 1) resulted in: mean correlation with KSR1 profile -0.186. After knock-down of ANAPC4 (anaphase promoting complex subunit 4), the record shows mean correlation with KSR1 profile -0.35. PRKCG (protein kinase C gamma) scored mean correlation with KSR1 profile 0.448. ZNF571 (zinc finger protein 571) gave mean correlation with KSR1 profile -0.0477. With knock-down of WEE1 (WEE1 G2 checkpoint kinase), the record shows mean correlation with KSR1 profile -0.177. P3H4 (prolyl 3-hydroxylase family member 4 (inactive)) gave mean correlation with KSR1 profile -0.0611.

ESR1 (estrogen receptor 1) gave mean correlation with KSR1 profile -0.134. With knock-down of HDAC5 (histone deacetylase 5), the screen gave mean correlation with KSR1 profile -0.5. For PSMD4 (proteasome 26S subunit ubiquitin receptor, non-ATPase 4), the entry reads mean correlation with KSR1 profile 0.579. Silencing of MYEOV (myeloma overexpressed) came out at: mean correlation with KSR1 profile -0.00624. Silencing of ACAP1 (ArfGAP with coiled-coil, ankyrin repeat and PH domains 1) gave: mean correlation with KSR1 profile 0.407. Silencing of EIF2B3 (eukaryotic translation initiation factor 2B subunit gamma) came out at: mean correlation with KSR1 profile 0.262.

Knock-down of ATG101 (autophagy related 101) resulted in: mean correlation with KSR1 profile -0.228. ZNF202 (zinc finger protein 202) scored mean correlation with KSR1 profile -0.501. Against TRDMT1 (tRNA aspartic acid methyltransferase 1), the values are mean correlation with KSR1 profile -0.569. After knock-down of TTLL12 (tubulin tyrosine ligase like 12) the results were mean correlation with KSR1 profile -0.373. Against SFRP1 (secreted frizzled related protein 1), the values are mean correlation with KSR1 profile 0.524. With knock-down of ANKS1B (ankyrin repeat and sterile alpha motif domain containing 1B), the record shows mean correlation with KSR1 profile -0.859.

For GATA4 (GATA binding protein 4) the deposit lists mean correlation with KSR1 profile -0.395. RPS7 (ribosomal protein S7) scored mean correlation with KSR1 profile -0.0799. For STK16 (serine/threonine kinase 16), the values are mean correlation with KSR1 profile -0.346. After knock-down of OPN1SW (opsin 1, short wave sensitive) the results were mean correlation with KSR1 profile 0.491. ZNF444 (zinc finger protein 444) scored mean correlation with KSR1 profile -0.282. With knock-down of CAPRIN2 (caprin family member 2), the screen gave mean correlation with KSR1 profile -0.224.

Against HMGN2 (high mobility group nucleosomal binding domain 2), the entry reads mean correlation with KSR1 profile 0.343. VPS26A (VPS26 retromer complex component A) scored mean correlation with KSR1 profile -0.25. After knock-down of THOC1 (THO complex subunit 1), the screen gave mean correlation with KSR1 profile -0.26. Against XRCC3 (X-ray repair cross complementing 3) the deposit lists mean correlation with KSR1 profile -0.682. With knock-down of MIEN1 (migration and invasion enhancer 1), the record shows mean correlation with KSR1 profile 0.618. With knock-down of C1QA (complement C1q A chain), the record shows mean correlation with KSR1 profile 0.335.

After knock-down of MFSD6 (major facilitator superfamily domain containing 6), the screen gave mean correlation with KSR1 profile 0.495. With knock-down of TSPAN12 (tetraspanin 12), the screen gave mean correlation with KSR1 profile 0.219. With knock-down of RAPGEF2 (Rap guanine nucleotide exchange factor 2) the results were mean correlation with KSR1 profile -0.543. After knock-down of MRAP (melanocortin 2 receptor accessory protein) the results were mean correlation with KSR1 profile 0.666. Depletion of USHBP1 (USH1 protein network component harmonin binding protein 1) resulted in: mean correlation with KSR1 profile 0.718. PVR (PVR cell adhesion molecule) showed mean correlation with KSR1 profile -0.713.
